Results published in PubChem BioAssay AID434936 (National Center for Advancing Translational Sciences (NCATS), 2010).
The shares of active, inactive and inconclusive entries below differ from those in the screen. Calls come from the whole dose curve; as a rule, active = well fitted curve in either direction with a large enough effect; inconclusive = small, poorly fitted or top-dose-only effect; inactive = flat fitted curve, though single readings scatter. Where the call is inconclusive, the potency comes from a doubtful curve fit.

Protein sequences, listed by entry. Tags and fused reporters are not part of them. Lines headed by an entry give the natural chain unless they say otherwise; changes in a name come on top.
UniProt Q6W5P4: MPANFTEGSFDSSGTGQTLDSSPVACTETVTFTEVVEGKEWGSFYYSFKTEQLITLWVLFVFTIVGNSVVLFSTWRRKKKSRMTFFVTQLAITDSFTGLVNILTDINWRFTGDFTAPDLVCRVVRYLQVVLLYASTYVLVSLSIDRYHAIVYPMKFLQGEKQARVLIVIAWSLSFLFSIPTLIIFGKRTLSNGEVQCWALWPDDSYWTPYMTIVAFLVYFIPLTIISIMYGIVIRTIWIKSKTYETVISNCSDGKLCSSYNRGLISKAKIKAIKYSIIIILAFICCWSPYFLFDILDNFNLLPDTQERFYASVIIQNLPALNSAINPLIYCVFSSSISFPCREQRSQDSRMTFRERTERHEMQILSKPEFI

Biological target: Neuropeptide S receptor (Homo sapiens) (UniProt Q6W5P4)
Test: Confirmation Concentration-Response Assay for Antagonists of the Neuropeptide S Receptor: Robust Characterization of cAMP Signal Transduction
Details: CHO-NPSR cells, NPS-stimulated cAMP TR-FRET
From the text: NIH Chemical Genomics Center [NCGC] NIH Molecular Libraries Probe Production centers Network [MLPCN] MLPCN Grant: X01-DA026210-01 Assay Submitter (PI): Heilig, Markus Alexander NCGC Assay Overview: Neuropeptide S receptor (NPSR), previously known as GPR154, is a recently de-orphanized G protein coupled receptor. Its endogenous ligand is the 20 amino acids peptide Neuropeptide S (NPS). […] NPS and its receptor are found in various tissues. Specifically they are highly expressed in brain areas that have been implicated in modulation of arousal, stress and anxiety. Central administration of NPS in mice produces an unusual profile of activity by inducing wakefulness and arousal, while at the same time suppressing anxiety. Therefore, NPSR may represent a novel drug target for the treatment of sleep and anxiety disorders. To identify NPSR antagonists, we developed a cell-based cAMP assay. NPS can stimulate the production of cAMP in Chinese hamster ovary cells stably expressing NPS receptor. This change in intracellular cAMP level can be detected by a homogeneous LANCE cAMP assay based on the TR-FRET (time resolved fluorescence resonance energy transfer) between a europium-labeled cAMP tracer complex and a cAMP-specific antibody labeled with Alexa Fluor 647. The europium-labeled cAMP tracer complex is formed by the tight interaction between Biotin-cAMP (b-cAMP) and streptavidin labeled with Europium-W8044 chelate (Eu-SA). Light pulse at 320 nm excites the europium of the cAMP tracer and the energy emitted is transferred to the Alexa molecule bound to the cAMP antibody, generating a TR-FRET signal at 665 nm. Residual energy from the europium will produce a light at 620 nm. The native unlabeled cAMP from cell lysates competes with the europium-cAMP tracer for antibody binding and reversely reduces the emission signal of Alexa by interrupting FRET between the two labeled molecules. Both emission signals from the FRET donor (620 nm) and the acceptor (665 nm) can be detected by a plate reader in the TRF mode. Expression of result in fluorescence ratio (665 nm/620 nm) helps to normalize differences due to cell density and reagent dispensing. This assay was successfully optimized to a 1536-well plate format. […]
NCGC Assay Protocol Summary: A Chinese hamster ovary (CHO) cell line stably expressing the NPS receptor (CHO-NPSR) was obtained from Dr. Heilig lab at NIAAA and maintained in F-12 Kaighn's media (Invitrogen, Carlsbad, CA, 21127) supplemented with 10 % FBS, 100 units/ml penicillin, 100 ug/ml streptomycin and 250 ug/ml geneticin at 37C, 5% CO2 in a humidified atmosphere. […] IC50 values were determined from concentration-response data modeled with the standard Hill equation. […]

S=P(c1ccccc1)(c1ccccc1)c1cnc2ccccn12
Potency: inconclusive: 62.8 µM [inhibitor, partial curve]

C[n+]1cc(P(=S)(c2ccccc2)c2ccccc2)n2ccccc21
Potency: inconclusive: 39.7 µM [inhibitor, partial curve]

Cn1cc(P(=S)(c2ccccc2)c2ccccc2)c2ccccc21
Potency: inconclusive: 158 µM [inhibitor, partial curve]

Cc1c(P(=S)(c2ccccc2)c2ccccc2)c2ccccc2n1C
Potency: inconclusive: 62.8 µM [inhibitor, partial curve]
